Data as given in PubChem BioAssay AID743454 (Peter MacCallum Cancer Centre, 2014)
The whole screen tested about 18,000 reagents; below is a random part of them. In the full data, 450 (2.5%) are marked active. 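Single biological run; no consistent viability z cut-off exists, so the class columns, not z-scores, define the calls.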 Unmarked entries are inactive. Reagents against one gene are numbered here.

- Test: 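Search for knock-downs that restore vorinostat killing in resistant colon cancer cells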 (primary screen)
- Cell system: human HCT116-VR colon cancer cells, selected for vorinostat resistance
- Reagent: siRNA pool against human genes, 40 nM siRNA pool
- Timing: vorinostat for 24 h, read-out about 72 h after transfection
- Treatment: vorinostat at 2.5 µM final
- Measurement: 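Cell viability by CellTiter-Fluor and caspase 3/7 activity by luminescence, each scaled to mock wells per plate, duplicates averaged, then robust z-scored over all plates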
- Reading the numbers: viability robust z-score: higher = more viable cells than screen typical; caspase robust z-score: higher = more caspase 3/7 activity than screen typical
- Call rule: 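Hits are knock-downs in viability class RV1/RV2 or caspase class CA1/CA2, excluding ones that killed cells in the no-drug cell-count arm; hits then retested with single siRNAs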

gene,pool no.,viability hit class,caspase hit class,viability robust z-score,caspase robust z-score
NEBL,1,no change,no change,2.11,1.02
NEBL,2,no change,no change,-1.08,0.12
GDI2,1,no change,no change,0.26,-0.22
TDRD3,1,no change,no change,-0.07,1.27
SET,1,no change,no change,-0.61,-0.3
SERF1A,1,no change,no change,-0.29,-0.55
PPP1R36,1,no change,no change,-0.7,-0.38
DXO,1,no change,no change,-1.04,2.13
PPP3R1,1,no change,no change,-0.56,-0.15
DZANK1,1,no change,no change,-1.56,0.05
NHERF4,1,no change,no change,0.97,-0.94
HCN3,1,no change,no change,0.05,0.23

Copied from above for reference:
gene,pool no.,viability hit class,caspase hit class,viability robust z-score,caspase robust z-score
GDI2,1,no change,no change,0.26,-0.22
TDRD3,1,no change,no change,-0.07,1.27
SET,1,no change,no change,-0.61,-0.3

Continued.
gene,pool no.,viability hit class,caspase hit class,viability robust z-score,caspase robust z-score
RNASE9,1,no change,no change,0.26,-0.16
FA2H,1,no change,no change,0.5,-0.29
NECAP2,1,no change,no change,0.42,-0.12
CDK2AP1,1,no change,no change,-0.82,0.05
ZNF84,1,no change,no change,1.24,0.11
HPF1,1,no change,no change,-0.71,4.23
NOXO1,1,no change,no change,0.75,0.02
ART4,1,no change,no change,-0.84,-0.79
GSDMD,1,no change,no change,0.1,-0.38
ZNF135,1,no change,no change,0.68,-0.34
NR2F2,1,no change,no change,-1.24,0.58
